Laboratory results as given in article doi:10.1101/2024.11.09.622756.

How the values were obtained:
[1] = target: T1, GpsB (bacterial two-hybrid fusion) (Streptococcus pneumoniae R6) (UniProt Q8DR57); assay: two-hybrid
T1 sequence: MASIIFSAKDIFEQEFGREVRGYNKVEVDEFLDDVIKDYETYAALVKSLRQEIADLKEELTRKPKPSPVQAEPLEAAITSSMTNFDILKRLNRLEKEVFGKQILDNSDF

[2] = target: mGFP-GarP (N-terminal GFP fusion of GarP, Spr1457) (Streptococcus pneumoniae R6) (UniProt Q8CYI0); assay: co-IP

Molecule | binding [1] | binding [2]
GarP (bacterial two-hybrid fusion used against GpsB) (from UniProt Q8CYI0) | binds | 
PBP1a (endogenous, S. pneumoniae) (enzyme, UniProt Q8DR59 1-719) MNKPTILRLIKYLSISFLSLVIAAIVLGGGVFFYYVSKAPSLSESKLVATTSSKIYDNKNQLIADLGSERRVNAQANDIPTDLVKAIVSIEDHRFFDHRGIDTIRILGAFLRNLQSNSLQGGSALTQQLIKLTYFSTSTSDQTISRKAQEAWLAIQLEQKATKQEILTYYINKVYMSNGNYGMQTAAQNYYGKDLNNLSLPQLALLAGMPQAPNQYDPYSHPEAAQDRRNLVLSEMKNQGYISAEQYEKAVNTPITDGLQSLKSASNYPAYMDNYLKEVINQVEEETGYNLLTTGMDVYTNVDQEAQKHLWDIYNTDEYVAYPDDELQVASTIVDVSNGKVIAQLGARHQSSNVSFGINQAVETNRDWGSTMKPITDYAPALEYGVYESTATIVHDEPYNYPGTNTPVYNWDRGYFGNITLQYALQQSRNVPAVETLNKVGLNRAKTFLNGLGIDYPSIHYSNAISSNTTESDKKYGASSEKMAAAYAAFANGGTYYKPMYIHKVVFSDGSEKEFSNVGTRAMKETTAYMMTDMMKTVLSYGTGRNAYLAWLPQAGKTGTSNYTDEEIENHIKTSQFVAPDELFAGYTRKYSMAVWTGYSNRLTPLVGNGLTVAAKVYRSMMTYLSEGSNPEDWNIPEGLYRNGEFVFKNGARSTWSSPAPQQPPSTESSSSSSDSSTSQSSSTTPSTNNSTTTNPNNNTQQSNTTPDQQNQNPQPAQP |  | binds

Results are given in words; binding and its absence hold for the method and conditions named. Binding can be weak; no strength is given. For some assays here: Where a sequence is shown, tags or fusion partners need not be part of it. For some assays here: Binding seen in cells or lysates may run through a third protein.
